One molecule from paper PMC4232348 can be followed below.

Amino acid sequences for entries named in this document (tags omitted). A change or cut given only in a name is not applied to a line headed by its entry.
UniProt O18333: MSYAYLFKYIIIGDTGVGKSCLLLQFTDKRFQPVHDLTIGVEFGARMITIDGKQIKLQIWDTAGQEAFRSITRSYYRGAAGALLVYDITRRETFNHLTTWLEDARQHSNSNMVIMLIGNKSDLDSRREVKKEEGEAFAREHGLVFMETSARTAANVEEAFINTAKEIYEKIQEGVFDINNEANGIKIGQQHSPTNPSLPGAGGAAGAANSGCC

For the experiment, the target named is GST-Rab2(Q65L), GTP-locked Drosophila Rab2 (Drosophila melanogaster) (UniProt O18333). The experiment is described as follows: pull-down; small-scale affinity chromatography with GDP- and GTP-locked GST-Rabs; lysates of S2 cells (endogenous protein or transfected tagged protein); immunoblot; only the target purified. On the technique in general: Immunoblotting shows a protein as a band on a membrane.

These are yes or no findings as the source states them, for the method shown. In cells and extracts the contact can be indirect. Some entries that bind do so weakly or less than the wild type.

B1: BicaudalD (protein, UniProt P16568 1-782)
chain: MSSASNNGPSADQSVQDLQMEVERLTRELDQVSSASAQSAQYGLSLLEEKSALQQKCEELETLYDNTRHELDITQEALTKFQTSQKVTNKTGIEQEDALLNESAARETSLNLQIFDLENELKQLRHELERVRNERDRMLQENSDFGRDKSDSEADRLRLKSELKDLKFRETRMLSEYSELEEENISLQKQVSSLRSSQVEFEGAKHEIRRLTEEVELLNQQVDELANLKKIAEKQMEEALETLQGEREAKYALKKELDGHLNRESMYHISNLAYSIRSNMEDNASNNSDGEEENLALKRLEADLSTELKSPDGTKCDLFSEIHLNELKKLEKQLESMESEKTHLTANLREAQTSLDKSQNELQNFMSRLALLAAHVDALVQLKKQIDVKEQGKEGGQKKDELEQQLRALISQYANWFTLSAKEIDGLKTDIAELQKGLNYTDATTTLRNEVTNLKNKLLATEQKSLDLQSDVQTLTHISQNAGQSLGSARSTLVALSDDLAQLYHLVCTVNGETPTRVLLDHKTDDMSFENDSLTAIQSQFKSDVFIAKPQIVEDLQGLADSVEIKKYVDTVSDQIKYLKTAVEHTIDMNKHKIRSEGGDALEKVNTEEMEELQEQIVKLKSLLSVKREQIGTLRNVLKSNKQTAEVALTNLKSKYENEKIIVSDTMSKLRNELRLLKEDAATFSSLRAMFAARCEEYVTQVDDLNRQLEAAEEEKKTLNQLLRLAVQQKLALTQRLEEMEMDREMRHVRRPMPAQRGTSGKSSFSTRPSSRNPASSNANPF
Turning to B1, the binding result is “binds”.
